± gives the standard deviation of the averaged measurements. In all, about 1,600 compounds were measured (“normalized intracellular growth (luminescence, IQM-normalized) in RAW264.7 macrophages”: median about 1, lowest 2% from about 0.43 on). The list shows a part of the results.
System: Salmonella enterica serovar Typhimurium SL1344
Assay: normalized intracellular growth (luminescence, IQM-normalized) in RAW264.7 macrophages (fraction of plate interquartile mean); higher = more bacterial growth (less inhibition)
Conditions: 10 µM

## Cc1cc(NS(=O)(=O)c2ccc(N)cc2)no1
Time point: T3 (3 h)
  normalized intracellular growth: 0.972 ± 0.056
Time point: Tfinal (~6 h)
  normalized intracellular growth: 1.02 ± 0.069

## CC(C)OC(=O)CCC/C=C\C[C@@H]1[C@@H](/C=C/[C@@H](O)COc2cccc(C(F)(F)F)c2)[C@H](O)C[C@@H]1O
Time point: T3 (3 h)
  normalized intracellular growth: 0.975 ± 0.033
Time point: Tfinal (~6 h)
  normalized intracellular growth: 1.19 ± 0.12

## O=C1CN(/N=C/c2ccc(-c3ccc([N+](=O)[O-])cc3)o2)C(=O)N1
Time point: T3 (3 h)
  normalized intracellular growth: 1.02 ± 0.021
Time point: Tfinal (~6 h)
  normalized intracellular growth: 0.9 ± 0.049

## CCC(=O)Oc1ccc2c(c1)CC[C@@H]1[C@@H]2CC[C@]2(C)[C@@H](OC(=O)CC)CC[C@@H]12
Time point: T3 (3 h)
  normalized intracellular growth: 0.977 ± 0.092
Time point: Tfinal (~6 h)
  normalized intracellular growth: 0.934 ± 0.089

## CC1(O)CCC(C(C)(C)O)CC1 (configuration not stated)
Time point: T3 (3 h)
  normalized intracellular growth: 0.995 ± 0.025
Time point: Tfinal (~6 h)
  normalized intracellular growth: 1.07 ± 0.056

## CCOC(=O)n1ccn(C)c1=S
Time point: T3 (3 h)
  normalized intracellular growth: 0.999 ± 0.032
Time point: Tfinal (~6 h)
  normalized intracellular growth: 1.15 ± 0.055

## C[C@H](N)[C@H](O)c1cccc(O)c1
Time point: T3 (3 h)
  normalized intracellular growth: 1.14 ± 0.082
Time point: Tfinal (~6 h)
  normalized intracellular growth: 0.922 ± 0.24

## CC1(C)S[C@@H]2[C@H](NC(=O)C(C(=O)O)c3ccccc3)C(=O)N2[C@H]1C(=O)O (some centres not stated)
Time point: T3 (3 h)
  normalized intracellular growth: 1.01 ± 0.021
Time point: Tfinal (~6 h)
  normalized intracellular growth: 0.957 ± 0.059

## CCN(CC)CCOC(=O)C(Cc1cccc2ccccc12)CC1CCCO1 (configuration not stated)
Time point: T3 (3 h)
  normalized intracellular growth: 1.07 ± 0.019
Time point: Tfinal (~6 h)
  normalized intracellular growth: 1.05 ± 0.15

## CC(C)(C)C(=O)C(Oc1ccc(Cl)cc1)n1ccnc1 (configuration not stated)
Time point: T3 (3 h)
  normalized intracellular growth: 1.042 ± 0.0043
Time point: Tfinal (~6 h)
  normalized intracellular growth: 1.12 ± 0.016

## O=C1CN(/N=C/c2ccc([N+](=O)[O-])o2)C(=O)N1
Time point: T3 (3 h)
  normalized intracellular growth: 0.959 ± 0.028
Time point: Tfinal (~6 h)
  normalized intracellular growth: 1.17 ± 0.061

## Cc1ccccc1OCC(O)CO (configuration not stated)
Time point: T3 (3 h)
  normalized intracellular growth: 1.01 ± 0.013
Time point: Tfinal (~6 h)
  normalized intracellular growth: 1.03 ± 0.053

## CC(C(=O)O)c1cccc(C(=O)c2ccccc2)c1 (configuration not stated)
Time point: T3 (3 h)
  normalized intracellular growth: 0.97 ± 0.022
Time point: Tfinal (~6 h)
  normalized intracellular growth: 1.01 ± 0.091

## Nc1nc(N)c2nc(CNc3ccc(C(=O)N[C@@H](CCC(=O)O)C(=O)O)cc3)cnc2n1
Time point: T3 (3 h)
  normalized intracellular growth: 0.994 ± 0.021
Time point: Tfinal (~6 h)
  normalized intracellular growth: 1.09 ± 0.15

## CCOC(=O)c1ncn2c1CN(C)C(=O)c1cc(F)ccc1-2
Time point: T3 (3 h)
  normalized intracellular growth: 0.992 ± 0.02
Time point: Tfinal (~6 h)
  normalized intracellular growth: 1.05 ± 0.15

## O=NN(CCCl)C(=O)NCCCl
Time point: T3 (3 h)
  normalized intracellular growth: 1.02 ± 0.043
Time point: Tfinal (~6 h)
  normalized intracellular growth: 1.03 ± 0.013

## CCCC1O[C@@H]2C[C@H]3[C@@H]4CCC5=CC(=O)C=C[C@]5(C)[C@H]4[C@@H](O)C[C@]3(C)[C@]2(C(=O)CO)O1 (some centres not stated)
Time point: T3 (3 h)
  normalized intracellular growth: 0.978 ± 0.021
Time point: Tfinal (~6 h)
  normalized intracellular growth: 1.03 ± 0.073

## Nc1nc2c(ncn2COCCO)c(=O)[nH]1
Time point: T3 (3 h)
  normalized intracellular growth: 0.941 ± 0.06
Time point: Tfinal (~6 h)
  normalized intracellular growth: 1.24 ± 0.18

## CC(C)NCC(O)c1ccc(O)c(O)c1 (configuration not stated)
Time point: T3 (3 h)
  normalized intracellular growth: 0.968 ± 0.041
Time point: Tfinal (~6 h)
  normalized intracellular growth: 1.08 ± 0.073

## COc1ccc2[nH]c([S@@+]([O-])Cc3ncc(C)c(OC)c3C)nc2c1
Time point: T3 (3 h)
  normalized intracellular growth: 0.975 ± 0.073
Time point: Tfinal (~6 h)
  normalized intracellular growth: 0.983 ± 0.24

## CCCCCN(CCCCC)C(=O)C(CCC(=O)O)NC(=O)c1ccc(Cl)c(Cl)c1 (configuration not stated)
Time point: T3 (3 h)
  normalized intracellular growth: 0.982 ± 0.039
Time point: Tfinal (~6 h)
  normalized intracellular growth: 0.835 ± 0.084

## COc1c(N2C[C@@H]3CCCN[C@@H]3C2)c(F)cc2c(=O)c(C(=O)O)cn(C3CC3)c12
Time point: T3 (3 h)
  normalized intracellular growth: 1.41 ± 0.1
Time point: Tfinal (~6 h)
  normalized intracellular growth: 0.00827 ± 0.001

## COc1ccc(C(=O)c2ccccc2)c(O)c1
Time point: T3 (3 h)
  normalized intracellular growth: 0.948 ± 0.07
Time point: Tfinal (~6 h)
  normalized intracellular growth: 0.417 ± 0.083

## CC(=O)OCC(=O)[C@@]1(O)[C@H](C)C[C@H]2[C@@H]3CCC4=CC(=O)C=C[C@]4(C)[C@@]3(F)[C@@H](O)C[C@@]21C
Time point: T3 (3 h)
  normalized intracellular growth: 1 ± 0.028
Time point: Tfinal (~6 h)
  normalized intracellular growth: 1 ± 0.037

## COc1ncnc(NS(=O)(=O)c2ccc(N)cc2)c1OC
Time point: T3 (3 h)
  normalized intracellular growth: 1.07 ± 0.098
Time point: Tfinal (~6 h)
  normalized intracellular growth: 1.13 ± 0.12

## COc1ccc(C(=O)CC(=O)c2ccc(C(C)(C)C)cc2)cc1
Time point: T3 (3 h)
  normalized intracellular growth: 1.07 ± 0.024
Time point: Tfinal (~6 h)
  normalized intracellular growth: 1.2 ± 0.13

## CCOc1cc(CC(=O)N[C@@H](CC(C)C)c2ccccc2N2CCCCC2)ccc1C(=O)O
Time point: T3 (3 h)
  normalized intracellular growth: 1.01 ± 0.055
Time point: Tfinal (~6 h)
  normalized intracellular growth: 1.15 ± 0.15

## C#C[C@]1(O)CC[C@H]2[C@@H]3CCc4cc(O)ccc4[C@H]3CC[C@@]21C
Time point: T3 (3 h)
  normalized intracellular growth: 0.975 ± 0.065
Time point: Tfinal (~6 h)
  normalized intracellular growth: 0.9533 ± 0.0089

## CCc1cc(C(N)=S)ccn1
Time point: T3 (3 h)
  normalized intracellular growth: 0.905 ± 0.053
Time point: Tfinal (~6 h)
  normalized intracellular growth: 0.98 ± 0.051

## CC(=O)Nc1c(I)c(NC(C)=O)c(I)c(C(=O)O)c1I
Time point: T3 (3 h)
  normalized intracellular growth: 1.01 ± 0.065
Time point: Tfinal (~6 h)
  normalized intracellular growth: 1.14 ± 0.16

## Cc1ccc(C(=O)Nc2ccc(S(=O)(=O)O)c3cc(S(=O)(=O)O)cc(S(=O)(=O)O)c23)cc1NC(=O)c1cccc(NC(=O)Nc2cccc(C(=O)Nc3cc(C(=O)Nc4ccc(S(=O)(=O)O)c5cc(S(=O)(=O)O)cc(S(=O)(=O)O)c45)ccc3C)c2)c1
Time point: T3 (3 h)
  normalized intracellular growth: 1.09 ± 0.048
Time point: Tfinal (~6 h)
  normalized intracellular growth: 1.1 ± 0.18

## CC(=O)Nc1ccc(S(=O)(=O)Nc2ccc([N+](=O)[O-])cc2)cc1
Time point: T3 (3 h)
  normalized intracellular growth: 0.992 ± 0.038
Time point: Tfinal (~6 h)
  normalized intracellular growth: 1.03 ± 0.15

## O=C(N/N=C/c1ccc([N+](=O)[O-])o1)c1ccc(O)cc1
Time point: T3 (3 h)
  normalized intracellular growth: 1.01 ± 0.017
Time point: Tfinal (~6 h)
  normalized intracellular growth: 1.02 ± 0.093

## CN1CCN(C(c2ccccc2)c2ccc(Cl)cc2)CC1 (configuration not stated)
Time point: T3 (3 h)
  normalized intracellular growth: 1.07 ± 0.063
Time point: Tfinal (~6 h)
  normalized intracellular growth: 1.08 ± 0.17

## CC(C)(O/N=C(\C(=O)N[C@@H]1C(=O)N2C(C(=O)[O-])=C(C[n+]3ccccc3)CS[C@H]12)c1csc(N)n1)C(=O)O
Time point: T3 (3 h)
  normalized intracellular growth: 0.997 ± 0.078
Time point: Tfinal (~6 h)
  normalized intracellular growth: 0.806 ± 0.12

## C[C@H]1[C@H](NC(=O)/C(=N\OC(C)(C)C(=O)O)c2csc(N)n2)C(=O)N1S(=O)(=O)O
Time point: T3 (3 h)
  normalized intracellular growth: 0.992 ± 0.04
Time point: Tfinal (~6 h)
  normalized intracellular growth: 0.2 ± 0.016

## CNCCC=C1c2ccccc2CCc2ccccc21
Time point: T3 (3 h)
  normalized intracellular growth: 0.97 ± 0.018
Time point: Tfinal (~6 h)
  normalized intracellular growth: 1.23 ± 0.041

## CCc1c2c(nc3ccc(OC(=O)N4CCC(N5CCCCC5)CC4)cc13)-c1cc3c(c(=O)n1C2)COC(=O)[C@]3(O)CC
Time point: T3 (3 h)
  normalized intracellular growth: 0.989 ± 0.048
Time point: Tfinal (~6 h)
  normalized intracellular growth: 0.918 ± 0.11

## CCn1cc(C(=O)O)c(=O)c2cc(F)c(N3CCNC(C)C3)c(F)c21 (configuration not stated)
Time point: T3 (3 h)
  normalized intracellular growth: 0.996 ± 0.098
Time point: Tfinal (~6 h)
  normalized intracellular growth: 0.0187 ± 0.0027

## CS(=O)(=O)Nc1ccc([N+](=O)[O-])cc1Oc1ccccc1
Time point: T3 (3 h)
  normalized intracellular growth: 1.01 ± 0.011
Time point: Tfinal (~6 h)
  normalized intracellular growth: 1.1 ± 0.28

## CCC1=C[C@@H]2CN(C1)Cc1c([nH]c3ccccc13)[C@@](C(=O)OC)(c1cc3c(cc1OC)N(C)[C@H]1[C@@](O)(C(=O)OC)[C@H](OC(C)=O)[C@]4(CC)C=CCN5CC[C@]31[C@@H]54)C2
Time point: T3 (3 h)
  normalized intracellular growth: 0.878 ± 0.014
Time point: Tfinal (~6 h)
  normalized intracellular growth: 0.7961 ± 0.0029

## OCc1ccccc1
Time point: T3 (3 h)
  normalized intracellular growth: 0.996 ± 0.016
Time point: Tfinal (~6 h)
  normalized intracellular growth: 0.959 ± 0.14

## CNC(=C[N+](=O)[O-])NCCSCc1csc(CN(C)C)n1
Time point: T3 (3 h)
  normalized intracellular growth: 0.995 ± 0.046
Time point: Tfinal (~6 h)
  normalized intracellular growth: 1 ± 0.053

## C[C@]12C=CC(=O)C=C1CC[C@@H]1[C@@H]2C(=O)C[C@@]2(C)[C@H]1CC[C@]2(O)C(=O)CO
Time point: T3 (3 h)
  normalized intracellular growth: 0.817 ± 0.19
Time point: Tfinal (~6 h)
  normalized intracellular growth: 0.833 ± 0.057

## CCOC(=O)CCC(=O)O[C@H]1[C@H](O[C@@H]2[C@@H](C)[C@H](O[C@H]3C[C@@](C)(OC)[C@@H](O)[C@H](C)O3)[C@@H](C)C(=O)O[C@H](CC)[C@@](C)(O)[C@H](O)[C@@H](C)C(=O)[C@H](C)C[C@@]2(C)O)O[C@H](C)C[C@@H]1N(C)C
Time point: T3 (3 h)
  normalized intracellular growth: 1 ± 0.088
Time point: Tfinal (~6 h)
  normalized intracellular growth: 1.21 ± 0.14

## Cc1ccc(S(=O)(=O)NCl)cc1
Time point: T3 (3 h)
  normalized intracellular growth: 0.946 ± 0.021
Time point: Tfinal (~6 h)
  normalized intracellular growth: 0.902 ± 0.052

## C[C@@H]1CN(c2c(F)c(N)c3c(=O)c(C(=O)O)cn(C4CC4)c3c2F)C[C@H](C)N1
Time point: T3 (3 h)
  normalized intracellular growth: 1.08 ± 0.037
Time point: Tfinal (~6 h)
  normalized intracellular growth: 0.0132 ± 0.002

## C[C@@H]1O[C@@H]1P(=O)(O)O
Time point: T3 (3 h)
  normalized intracellular growth: 0.967 ± 0.11
Time point: Tfinal (~6 h)
  normalized intracellular growth: 1.04 ± 0.064

## CCn1cc(C(=O)O)c(=O)c2cc(F)c(N3CCN(C)CC3)cc21
Time point: T3 (3 h)
  normalized intracellular growth: 1.11 ± 0.11
Time point: Tfinal (~6 h)
  normalized intracellular growth: 0.012 ± 0.0031

## Nc1ncnc2c1ncn2[C@@H]1O[C@H](COP(=O)(O)O)[C@@H](O)[C@H]1O
Time point: T3 (3 h)
  normalized intracellular growth: 0.935 ± 0.025
Time point: Tfinal (~6 h)
  normalized intracellular growth: 0.954 ± 0.03

## CCC(=O)O[C@H]1[C@H](O[C@@H]2[C@@H](C)[C@H](O[C@H]3C[C@@](C)(OC)[C@@H](O)[C@H](C)O3)[C@@H](C)C(=O)O[C@H](CC)[C@@](C)(O)[C@H](O)[C@@H](C)C(=O)[C@H](C)C[C@@]2(C)O)O[C@H](C)C[C@@H]1N(C)C
Time point: T3 (3 h)
  normalized intracellular growth: 0.792 ± 0.092
Time point: Tfinal (~6 h)
  normalized intracellular growth: 0.901 ± 0.065

Source: the supplement of paper PMC6331611
